{"sequences": {"note": "Protein sequences, listed by entry. Tags and fused reporters are not part of them.", "UniProt Q14145, whole entry": "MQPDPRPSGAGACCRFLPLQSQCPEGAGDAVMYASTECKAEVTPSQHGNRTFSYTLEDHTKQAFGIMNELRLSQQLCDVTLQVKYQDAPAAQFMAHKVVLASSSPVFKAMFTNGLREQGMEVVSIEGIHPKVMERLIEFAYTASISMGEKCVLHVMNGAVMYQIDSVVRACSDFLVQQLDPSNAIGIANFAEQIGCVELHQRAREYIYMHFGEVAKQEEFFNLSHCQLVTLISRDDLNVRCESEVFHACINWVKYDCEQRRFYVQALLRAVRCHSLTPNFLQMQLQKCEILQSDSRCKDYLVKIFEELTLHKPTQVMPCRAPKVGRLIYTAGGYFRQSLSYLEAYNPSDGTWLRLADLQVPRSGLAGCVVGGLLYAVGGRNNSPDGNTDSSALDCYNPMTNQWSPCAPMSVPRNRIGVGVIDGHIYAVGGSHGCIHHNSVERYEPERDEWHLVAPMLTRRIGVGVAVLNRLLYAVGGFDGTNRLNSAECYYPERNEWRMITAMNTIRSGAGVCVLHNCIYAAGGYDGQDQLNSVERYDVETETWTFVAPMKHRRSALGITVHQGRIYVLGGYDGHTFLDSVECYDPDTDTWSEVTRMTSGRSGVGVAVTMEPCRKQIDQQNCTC"}, "source": "patent US20220177466A1", "about": "“DEGRADERS OF KELCH-LIKE ECH-ASSOCIATED PROTEIN 1 (KEAP1)” (DANA-FARBER CANCER INSTITUTE, INC., priority 2019, published 2022)", "biological_target": "T1, KEAP1 (Homo sapiens, UniProt Q14145)", "T1 construct": "endogenous in cells; host or cells: MM.1S cells", "assay": "KEAP1 degradation time course in MM.1S cells, immunoblot, 5 μM", "type": "cell-based", "details": "5 μM, 0, 2, 4 or 6 h, FIG. 2", "note": "Some of these results come from one statement about several compounds together."}
{"smiles": "COc1cc(C(CC(=O)O)c2ccc(C)c(CN3C[C@@H](C)Oc4cc(CCCCCCNC(=O)COc5cccc6c5C(=O)N(C5CCC(=O)NC5=O)C6=O)ccc4S3(=O)=O)c2)cc2nnn(C)c12", "note": "(stereo partly drawn) [compound 1, 3-(3-(((4R)-7-(6-(2-((2-(2,6-dioxopiperidin-3-yl)-1,3-dioxoisoindolin-4-yl)oxy)acetamido)hexyl)-4-methyl-1,1-dioxido-3,4-dihydro-2H-benzo[b][1,4,5]oxathiazepin-2-yl)methyl)-4-methylphenyl)-3-(7-methoxy-1-methyl-1H-benzo[d][1,2,3]triazol-5-yl)propanoic Acid]", "values": [{"measurement": "time for which KEAP1 degradation persisted", "result": "at least 6 h"}, {"measurement": "time within which KEAP1 degradation was induced", "result": "≤ 2", "unit": "h"}]}
{"smiles": "COc1cc(C(CC(=O)O)c2ccc(C)c(CN3C[C@@H](C)Oc4cc(CCCCCCNC(=O)COc5cc6c7c(cccc7c5)C(=O)N(C5CCC(=O)NC5=O)C6=O)ccc4S3(=O)=O)c2)cc2nnn(C)c12", "note": "(stereo partly drawn) [compound 4, 3-(3-(((4R)-7-(6-(2-((2-(2,6-dioxopiperidin-3-yl)-1,3-dioxo-2,3-dihydro-1H-benzo[de]isoquinolin-5-yl)oxy)acetamido)hexyl)-4-methyl-1,1-dioxido-3,4-dihydro-2H-benzo[b][1,4,5]oxathiazepin-2-yl)methyl)-4-methylphenyl)-3-(7-methoxy-1-methyl-1H-benzo[d][1,2,3]triazol-5-yl)propanoic Acid]", "values": [{"measurement": "time for which KEAP1 degradation persisted", "result": "at least 6 h"}, {"measurement": "time within which KEAP1 degradation was induced", "result": "≤ 2", "unit": "h"}]}
